Experimental data: article doi:10.1101/2022.11.10.515958 (bioRxiv, 2022)
These are yes or no findings as the source states them, for the method shown. Binding seen in cells or lysates may run through a third protein. Some results given as binding are weak or reduced against the parent protein; the word gives no strength. For part of these data: Where a sequence is shown, tags or fusion partners need not be part of it.

B1: Swi6-5FLAG (protein, UniProt P09959 1-803)
chain: MALEEVVRYLGPHNEIPLTLTRDSETGHFLLKHFLPILQQYHDTGNINETNPDSFPTDEERNKLLAHYGIAVNTDDRGELWIELEKCLQLLNMLNLFGLFQDAFEFEEPETDQDEEDPSHSKLPENKTKSENSKDNISSKRINNLQDMSLDSDAHRELGSPLKKLKIDTSVIDAESDSTPNTARGKPNDDINKGPSGDNENNGTDDNDRTAGPIITFTHDLTSDFLSSPLKIMKALPSPVVNDNEQKMKLEAFLQRLLFPEIQEMPTSLNNDSSNRNSEGGSSNQQQQHVSFDSLLQEVNDAFPNTQLNLNIPVDEHGNTPLHWLTSIANLELVKHLVKHGSNRLYGDNMGESCLVKAVKSVNNYDSGTFEALLDYLYPCLILEDSMNRTILHHIIITSGMTGCSAAAKYYLDILMGWIVKKQNRPIQSGTNEKESKPNDKNGERKDSILENLDLKWIIANMLNAQDSNGDTCLNIAARLGNISIVDALLDYGADPFIANKSGLRPVDFGAGTSKLQNTNGGDENSKMVSKGDYDGQKNGKAKKIRSQLLKNPPETTSLINDVQNLLNSISKDYENETVQYNEKLEKLHKELNEQREELANSREQLANVKQLKDEYSLMQEQLTNLKAGIEEEEESFREESKKLGIIADESSGIDWDSSEYDADEPFKVEFLSDFLEDKLQKNYEGDISKLLEAESKEQIMEQIRNQLPAEKIQSMLPPTVLLKARINAYKRNDKHLTNVLDTISTKQSELENKFRRVLSLCLKIDENKVDNMLDGLLQAISSEDPQDIDTDEMQDFLKKHAS
B2: Swi4-5FLAG (protein, UniProt P25302 1-1093)
chain: MPFDVLISNQKDNTNHQNITPISKSVLLAPHSNHPVIEIATYSETDVYECYIRGFETKIVMRRTKDDWINITQVFKIAQFSKTKRTKILEKESNDMQHEKVQGGYGRFQGTWIPLDSAKFLVNKYEIIDPVVNSILTFQFDPNNPPPKRSKNSILRKTSPGTKITSPSSYNKTPRKKNSSSSTSATTTAANKKGKKNASINQPNPSPLQNLVFQTPQQFQVNSSMNIMNNNDNHTTMNFNNDTRHNLINNISNNSNQSTIIQQQKSIHENSFNNNYSATQKPLQFFPIPTNLQNKNVALNNPNNNDSNSYSHNIDNVINSSNNNNNGNNNNLIIVPDGPMQSQQQQQHHHEYLTNNFNHSMMDSITNGNSKKRRKKLNQSNEQQFYNQQEKIQRHFKLMKQPLLWQSFQNPNDHHNEYCDSNGSNNNNNTVASNGSSIEVFSSNENDNSMNMSSRSMTPFSAGNTSSQNKLENKMTDQEYKQTILTILSSERSSDVDQALLATLYPAPKNFNINFEIDDQGHTPLHWATAMANIPLIKMLITLNANALQCNKLGFNCITKSIFYNNCYKENAFDEIISILKICLITPDVNGRLPFHYLIELSVNKSKNPMIIKSYMDSIILSLGQQDYNLLKICLNYQDNIGNTPLHLSALNLNFEVYNRLVYLGASTDILNLDNESPASIMNKFNTPAGGSNSRNNNTKADRKLARNLPQKNYYQQQQQQQQPQNNVKIPKIIKTQHPDKEDSTADVNIAKTDSEVNESQYLHSNQPNSTNMNTIMEDLSNINSFVTSSVIKDIKSTPSKILENSPILYRRRSQSISDEKEKAKDNENQVEKKKDPLNSVKTAMPSLESPSSLLPIQMSPLGKYSKPLSQQINKLNTKVSSLQRIMGEEIKNLDNEVVETESSISNNKKRLITIAHQIEDAFDSVSNKTPINSISDLQSRIKETSSKLNSEKQNFIQSLEKSQALKLATIVQDEESKVDMNTNSSSHPEKQEDEEPIPKSTSETSSPKNTKADAKFSNTVQESYDVNETLRLATELTILQFKRRMTTLKISEAKSKINSSVKLDKYRNLIGITIENIDSKLDDIEKDLRANA
B3: Cks1-ALFA (natural protein, S. cerevisiae, UniProt P20486 1-150, looked up)
chain: MYHHYHAFQGRKLTDQERARVLEFQDSIHYSPRYSDDNYEYRHVMLPKAMLKVIPSDYFNSEVGTLRILTEDEWRGLGITQSLGWEHYECHAPEPHILLFKRPLNYEAELRAATAAAQQQQQQQQQQQQQQQQHQTQSISNDMQVPPQIS

Key:
[1] = molecular target: T1, 4MYC-Whi7 (S. cerevisiae) (UniProt P36167); assay: co-IP
T1 sequence: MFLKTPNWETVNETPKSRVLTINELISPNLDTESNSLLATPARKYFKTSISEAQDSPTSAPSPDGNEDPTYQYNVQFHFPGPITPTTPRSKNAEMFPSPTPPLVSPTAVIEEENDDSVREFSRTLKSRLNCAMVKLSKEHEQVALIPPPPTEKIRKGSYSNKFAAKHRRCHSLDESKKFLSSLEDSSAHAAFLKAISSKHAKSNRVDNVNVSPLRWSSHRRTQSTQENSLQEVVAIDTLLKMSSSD

[2] = molecular target: T2, Whi7 (at endogenous protein level, co-immunoprecipitation of Figure 3E) (S. cerevisiae) (UniProt P36167); assay: co-IP
T2 sequence: T1 sequence

Binder | binding [1] | binding [2]
B1 | binds | 
B2 | binds | 
B3 |  | binds
